Laboratory results reported in article PMC3885392.
Where a chain is given by its changes, count along the chain named. Results are given in words; binding and its absence hold for the method and conditions named. In cells and extracts the contact can be indirect. Binding calls can cover weak binding; strength is not graded here. For some of these results: Sequences can lack the tags named with a protein.

Experiments:
Experiment in all cases: co-IP; 293T cells co-transfected with the indicated plasmids, 72 h, Brij97 lysis buffer, immunoprecipitated with anti-HA or anti-Flag antibody with mouse IgG as a control, immunoblot
[1] = target: T1, Flag-tagged Phafin2 (human) (UniProt Q9H8W4)
T1 sequence: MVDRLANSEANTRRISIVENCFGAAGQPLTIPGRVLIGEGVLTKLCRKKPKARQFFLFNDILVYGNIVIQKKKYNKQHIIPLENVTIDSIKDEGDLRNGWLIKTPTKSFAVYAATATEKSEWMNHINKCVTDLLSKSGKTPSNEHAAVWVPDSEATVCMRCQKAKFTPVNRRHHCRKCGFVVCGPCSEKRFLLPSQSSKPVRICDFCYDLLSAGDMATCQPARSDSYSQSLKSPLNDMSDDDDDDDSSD

[2] = target: T2, PtdIns(3)P interaction-defective mutant Phafin2 (R53C, R171A, and R172A) (human) (UniProt Q9H8W4)
T2 sequence: T1 sequence with R53C, R171A, R172A

[3] = target: T3, Phafin2 subfragment: PH domain (human) (UniProt Q9H8W4)
T3 sequence: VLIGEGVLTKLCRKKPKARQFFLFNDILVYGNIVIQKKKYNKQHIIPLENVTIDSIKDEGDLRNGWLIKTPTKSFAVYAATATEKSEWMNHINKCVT

binding [1]	binding [2]	binding [3]	Substance
binds			HA-Akt subfragment: C-terminal Akt kinase domain (human) (domain or fragment)
binds	binds	binds	HA-Akt (isoform not stated) (human) (enzyme)
